# Data taken from the supplement of paper PMC4604168 (melanoma cell lines).
# The list shows a part of the results. Repeats are few or missing, and single values can be far off.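 Cells were imaged in 1,536-well plates, and nuclei stained with an antibody against cleaved PARP were counted against all DNA-stained nuclei to give the apoptosis fraction. Screening doses were chosen to leave most cells alive, and resting and induced cleaved-PARP levels differ strongly between cell lines.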
# Tested on: A2058
# Assay: cleaved PARP positive nuclei fraction relative to DMSO control; melanoma cells; higher = more apoptosis
# Conditions: library dose: low library concentration; 72 h
row,SMILES,cleaved PARP positive nuclei fraction [%]
1,"CS(=O)(=O)c1ccc(C(=O)Nc2ccc(Cl)c(-c3ccccn3)c2)c(Cl)c1 [vismodegib] + N.N.[Cl][Pt][Cl] [cisplatin] (first compound 1 µM, partner dose 1.6 µM)",63.1
2,"Cc1cc(Nc2cc(N3CCN(C)CC3)nc(/C=C/c3ccccc3)n2)n[nH]1 + C[As](C)SC[C@H](NC(=O)CC[C@H](N)C(=O)O)C(=O)NCC(=O)O [Darinaparsin] (first compound 0.04 µM, partner dose 0.4 µM)",118
3,"O=C(Nc1cc(C(F)(F)F)cc(C(F)(F)F)c1)c1cc(Cl)ccc1O + C[As](C)SC[C@H](NC(=O)CC[C@H](N)C(=O)O)C(=O)NCC(=O)O [Darinaparsin] (first compound 0.016 µM, partner dose 0.4 µM)",106
4,"Cc1cn(-c2cc(NC(=O)c3ccc(C)c(Nc4nccc(-c5cccnc5)n4)c3)cc(C(F)(F)F)c2)cn1 [nilotinib] + C[C@]12O[C@H](C[C@]1(O)CO)n1c3ccccc3c3c4c(c5c6ccccc6n2c5c31)CNC4=O [Lestaurtinib] (first compound 0.2 µM, partner dose 0.004 µM)",147
5,"C[As](C)SC[C@H](NC(=O)CC[C@H](N)C(=O)O)C(=O)NCC(=O)O [Darinaparsin] + Cn1c(Nc2ccc(C(F)(F)F)cc2)nc2cc(Oc3ccnc(-c4ncc(C(F)(F)F)[nH]4)c3)ccc21 [CHIR265] (first compound 0.4 µM, partner dose 0.08 µM)",174
6,"Cn1cc(C2=C(c3cn(C4CCN(Cc5ccccn5)CC4)c4ccccc34)C(=O)NC2=O)c2ccccc21 [Enzastaurin] + CN(c1ncccc1CNc1nc(Nc2ccc3c(c2)CC(=O)N3)ncc1C(F)(F)F)S(C)(=O)=O [PF562271] (first compound 0.8 µM, partner dose 0.08 µM)",147
7,"C[C@]12O[C@H](C[C@]1(O)CO)n1c3ccccc3c3c4c(c5c6ccccc6n2c5c31)CNC4=O [Lestaurtinib] + O=C(O)c1ccc2c(c1)nc(Nc1cccc(Cl)c1)c1ccncc12 [CX4945] (first compound 0.004 µM, partner dose 0.4 µM)",127
8,"CC(=O)c1c(C)c2cnc(Nc3ccc(N4CCNCC4)cn3)nc2n(C2CCCC2)c1=O [palbociclib] + C[As](C)SC[C@H](NC(=O)CC[C@H](N)C(=O)O)C(=O)NCC(=O)O [Darinaparsin] (first compound 0.04 µM, partner dose 0.4 µM)",117
9,"NC1(c2ccc(-c3nc4ccn5c(=O)[nH]nc5c4cc3-c3ccccc3)cc2)CCC1 + N.N.[Cl][Pt][Cl] [cisplatin] (first compound 0.4 µM, partner dose 1.6 µM)",70
10,"Cc1cc(Nc2cc(N3CCN(C)CC3)nc(Sc3ccc(NC(=O)C4CC4)cc3)n2)n[nH]1 [Tozasertib] + Cn1cc(C2=C(c3cn(C4CCN(Cc5ccccn5)CC4)c4ccccc34)C(=O)NC2=O)c2ccccc21 [Enzastaurin] (first compound 0.006 µM, partner dose 0.8 µM)",130
11,"CC(C)C[C@H](NC(=O)[C@H](Cc1ccccc1)NC(=O)c1cnccn1)B(O)O [Bortezomib] + N.N.[Cl][Pt][Cl] [cisplatin] (first compound 0.001 µM, partner dose 1.6 µM)",59
12,"Nc1nc(F)nc2c1ncn2[C@@H]1O[C@H](CO)[C@@H](O)[C@@H]1O [fludarabine] + C[As](C)SC[C@H](NC(=O)CC[C@H](N)C(=O)O)C(=O)NCC(=O)O [Darinaparsin] (first compound 0.2 µM, partner dose 0.4 µM)",76.5
13,"Cn1cc(C2=C(c3cn(C4CCN(Cc5ccccn5)CC4)c4ccccc34)C(=O)NC2=O)c2ccccc21 [Enzastaurin] + CCN(CC)CCNC(=O)c1c(C)[nH]c(/C=C2\C(=O)Nc3ccc(F)cc32)c1C [sunitinib] (first compound 0.8 µM, partner dose 0.4 µM)",42.6
14,"C[C@]12O[C@H](C[C@]1(O)CO)n1c3ccccc3c3c4c(c5c6ccccc6n2c5c31)CNC4=O [Lestaurtinib] + Nc1cccc2c1CN(C1CCC(=O)NC1=O)C2=O [lenalidomide] (first compound 0.004 µM, partner dose 1 µM)",179
15,"N.N.[Cl][Pt][Cl] [cisplatin] + Cn1nnc2c(C(N)=O)ncn2c1=O [temozolomide] (first compound 1.6 µM, partner dose 2 µM)",82.7
16,"Cn1cc(C2=C(c3cn(C4CCN(Cc5ccccn5)CC4)c4ccccc34)C(=O)NC2=O)c2ccccc21 [Enzastaurin] + CNC(=O)c1cc(Oc2ccc(NC(=O)Nc3ccc(Cl)c(C(F)(F)F)c3)cc2)ccn1 [sorafenib] (first compound 0.8 µM, partner dose 0.4 µM)",96.3
17,"Cc1cn(-c2cc(NC(=O)c3ccc(C)c(Nc4nccc(-c5cccnc5)n4)c3)cc(C(F)(F)F)c2)cn1 [nilotinib] + C[As](C)SC[C@H](NC(=O)CC[C@H](N)C(=O)O)C(=O)NCC(=O)O [Darinaparsin] (first compound 0.2 µM, partner dose 0.4 µM)",168
18,"Cc1ccc(Nc2nccc(N(C)c3ccc4c(C)n(C)nc4c3)n2)cc1S(N)(=O)=O [Pazopanib] + Cn1cc(C2=C(c3cn(C4CCN(Cc5ccccn5)CC4)c4ccccc34)C(=O)NC2=O)c2ccccc21 [Enzastaurin] (first compound 0.4 µM, partner dose 0.8 µM)",51.5
19,"C[C@]12O[C@H](C[C@]1(O)CO)n1c3ccccc3c3c4c(c5c6ccccc6n2c5c31)CNC4=O [Lestaurtinib] + OCc1c[nH]c2ccccc12 [Indole-3-carbinol] (first compound 0.004 µM, partner dose 0.8 µM)",195
20,"Cn1cc(C2=C(c3cn(C4CCN(Cc5ccccn5)CC4)c4ccccc34)C(=O)NC2=O)c2ccccc21 [Enzastaurin] + C[C@]1(O)C[C@@H](c2nc(-c3ccc4ccc(-c5ccccc5)nc4c3)c3c(N)nccn32)C1 [OSI906] (first compound 0.8 µM, partner dose 0.4 µM)",82.5
21,"O=C(/C=C/c1cccnc1)NCCCCC1CCN(C(=O)c2ccccc2)CC1 + N.N.[Cl][Pt][Cl] [cisplatin] (first compound 0.01 µM, partner dose 1.6 µM)",68.5
22,"O=C(Nc1cc(C(F)(F)F)cc(C(F)(F)F)c1)c1cc(Cl)ccc1O + Cn1cc(C2=C(c3cn(C4CCN(Cc5ccccn5)CC4)c4ccccc34)C(=O)NC2=O)c2ccccc21 [Enzastaurin] (first compound 0.016 µM, partner dose 0.8 µM)",140
23,"C#Cc1cccc(Nc2ncnc3cc(OCCOC)c(OCCOC)cc23)c1 [erlotinib] + C[As](C)SC[C@H](NC(=O)CC[C@H](N)C(=O)O)C(=O)NCC(=O)O [Darinaparsin] (first compound 0.8 µM, partner dose 0.4 µM)",126
24,"Cn1cnc2c(F)c(Nc3ccc(Br)cc3Cl)c(C(=O)NOCCO)cc21 [selumetinib] + Cn1cc(C2=C(c3cn(C4CCN(Cc5ccccn5)CC4)c4ccccc34)C(=O)NC2=O)c2ccccc21 [Enzastaurin] (first compound 0.015 µM, partner dose 0.8 µM)",105
25,"N.N.[Cl][Pt][Cl] [cisplatin] + C[C@@H](Oc1cc(-c2cnn(C3CCNCC3)c2)cnc1N)c1c(Cl)ccc(F)c1Cl [Crizotinib] (first compound 1.6 µM, partner dose 0.2 µM)",91.3

# As entered above:
# cleaved PARP positive nuclei fraction [%], NC1(c2ccc(-c3nc4ccn5c(=O)[nH]nc5c4cc3-c3ccccc3)cc2)CCC1 + N.N.[Cl][Pt][Cl] [cisplatin] (first compound 0.4 µM, partner dose 1.6 µM) reads 70
# cleaved PARP positive nuclei fraction [%], C[C@]12O[C@H](C[C@]1(O)CO)n1c3ccccc3c3c4c(c5c6ccccc6n2c5c31)CNC4=O [Lestaurtinib] + Nc1cccc2c1CN(C1CCC(=O)NC1=O)C2=O [lenalidomide] (first compound 0.004 µM, partner dose 1 µM) reads 179
